These are yes or no findings as the source states them, for the method shown. Some results given as binding are weak or reduced against the parent protein; the word gives no strength.
Assays:
[1] = molecular target: cynomolgus CD40 protein expressed on CHO-S cells (cynomolgus) (UniProt G7PG38); assay: flow cytometry on CHO-S cells transiently expressing cynomolgus CD40; AF647 anti-human IgG (H+L) secondary; GeoMean RL1-H
[2] = molecular target: cynomolgus CD40 protein expressed on CHO-S cells (cynomolgus) (UniProt G7PG38); assay: flow cytometry on CHO-S cells transiently expressing CD40

By UniProt entry, the sequences of proteins in these tests, tags left out. Where a name states a change or a piece, a line headed by the entry shows the natural chain unless it says otherwise. Chains listed by the source or under a name are the forms on record and can include a tag or linker.
cynomolgus CD40 protein expressed on CHO-S cells (G7PG38, form named): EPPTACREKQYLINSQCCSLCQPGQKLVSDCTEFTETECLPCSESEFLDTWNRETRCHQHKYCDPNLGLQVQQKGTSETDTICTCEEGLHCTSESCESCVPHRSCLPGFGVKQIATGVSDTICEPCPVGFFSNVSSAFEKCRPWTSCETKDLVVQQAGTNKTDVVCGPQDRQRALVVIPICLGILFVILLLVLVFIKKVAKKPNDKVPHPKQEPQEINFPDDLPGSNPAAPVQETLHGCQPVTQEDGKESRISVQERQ

Binder | binding [1] | binding [2]
antibody 15833 (antibody, human IgG1, kappa, L234A L235A, V domains shown) VH: QVQLVESGGGVVQPGRSLRLSCAASGFTFSNYAMHWVRQAPGKGLEWVALISFDGSYKYYADSVKGRFTISRDNSKNTLYLQMNSLRAEDTAVYYCVKDAGYSSSWFFDYWGQGTLVTVSS VL: DIQMTQSPSSVSASVGDRVTITCRASQDISSWLAWYQQKPGKAPKLLIYAASSLQSGVPSRFSGSGSGTDFTLTISSLQPEDFGNYYCQQANSFPWTFGQGTKVEIKR | binds | binds
antibody 16154 (antibody, human IgG1, kappa, L234A L235A, V domains shown) VH: EVQLVESGGGLVQPGGSLRLSCAASGFTFTSYWMSWVRQAPGKGLEWVANIKQDGSEKYYVDSVKGRFTISRDNAKNSLYLQMNSLRAEDTAVYYCARGPVAGPYWYFDLWGRGTLVTVSS VL: AIQMTQSPSSLSASVGDRVTITCRASQGIRNDLGWYQQKPGKAPKLLIYAASSLQSGVPSRFSGSGSGTDFTLTISSLQPEDFATYYCLQDYHYPLTFGGGTKVEIKR | binds | binds

— US20210214454A1
